Among the data in article PMC6018636, “Mutually exclusive acetylation and ubiquitylation of the splicing factor SRSF5 control tumor growth” (Nature Communications, 2018) are binding values, retold here.

Amino acid sequences for entries named in this document (tags omitted).
UniProt P62820: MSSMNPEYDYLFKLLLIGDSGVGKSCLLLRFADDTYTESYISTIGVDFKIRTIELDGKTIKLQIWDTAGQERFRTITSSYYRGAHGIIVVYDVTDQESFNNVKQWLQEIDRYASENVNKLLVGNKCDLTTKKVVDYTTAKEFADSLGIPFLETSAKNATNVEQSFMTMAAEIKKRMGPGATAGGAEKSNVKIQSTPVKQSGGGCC
UniProt Q9H0U4: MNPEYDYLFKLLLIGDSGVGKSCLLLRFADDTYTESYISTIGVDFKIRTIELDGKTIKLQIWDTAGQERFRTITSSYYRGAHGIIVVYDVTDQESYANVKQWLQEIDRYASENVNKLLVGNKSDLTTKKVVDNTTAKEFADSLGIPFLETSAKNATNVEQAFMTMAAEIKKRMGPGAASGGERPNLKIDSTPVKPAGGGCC
UniProt P98175: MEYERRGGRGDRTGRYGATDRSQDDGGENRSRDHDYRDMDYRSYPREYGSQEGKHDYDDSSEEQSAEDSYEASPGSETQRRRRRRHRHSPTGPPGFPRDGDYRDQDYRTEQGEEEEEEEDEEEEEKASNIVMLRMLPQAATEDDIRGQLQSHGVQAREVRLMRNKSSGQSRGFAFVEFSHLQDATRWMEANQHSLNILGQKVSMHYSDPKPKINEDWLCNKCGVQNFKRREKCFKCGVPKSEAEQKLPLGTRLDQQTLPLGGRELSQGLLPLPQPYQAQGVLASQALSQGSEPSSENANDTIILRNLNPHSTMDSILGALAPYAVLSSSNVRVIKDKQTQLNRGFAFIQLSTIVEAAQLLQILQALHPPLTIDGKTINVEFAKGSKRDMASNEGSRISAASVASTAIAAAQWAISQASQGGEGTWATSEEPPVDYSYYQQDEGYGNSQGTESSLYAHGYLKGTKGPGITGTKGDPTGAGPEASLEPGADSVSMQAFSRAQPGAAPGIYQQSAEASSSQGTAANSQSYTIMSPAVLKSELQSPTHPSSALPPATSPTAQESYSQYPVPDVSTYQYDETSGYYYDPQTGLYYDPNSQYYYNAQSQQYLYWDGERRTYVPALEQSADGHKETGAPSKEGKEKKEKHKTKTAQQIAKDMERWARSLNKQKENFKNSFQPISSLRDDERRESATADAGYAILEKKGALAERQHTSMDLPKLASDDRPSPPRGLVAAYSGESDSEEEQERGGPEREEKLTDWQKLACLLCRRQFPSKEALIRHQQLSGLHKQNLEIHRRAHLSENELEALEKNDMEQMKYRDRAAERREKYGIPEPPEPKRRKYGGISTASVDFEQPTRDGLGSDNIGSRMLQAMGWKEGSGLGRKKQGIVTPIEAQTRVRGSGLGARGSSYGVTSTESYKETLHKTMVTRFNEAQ
UniProt P09429: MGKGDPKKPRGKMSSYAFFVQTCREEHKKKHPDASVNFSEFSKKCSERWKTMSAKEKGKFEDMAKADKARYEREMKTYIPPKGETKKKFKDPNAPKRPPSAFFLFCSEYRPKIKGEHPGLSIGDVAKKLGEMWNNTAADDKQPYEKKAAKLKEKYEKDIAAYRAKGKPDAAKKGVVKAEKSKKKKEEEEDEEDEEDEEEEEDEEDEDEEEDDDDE

These are yes or no findings as the source states them, for the method shown. In cells and extracts the contact can be indirect. These calls come from enrichment with a bait or labelling near it, and not all partners need be listed. Where a sequence is shown, tags or fusion partners need not be part of it.

The target in this experiment is T1, Flag-CCAR1L (long isoform of cell cycle and apoptosis regulator 1) (human) (UniProt Q8IX12).
T1 sequence: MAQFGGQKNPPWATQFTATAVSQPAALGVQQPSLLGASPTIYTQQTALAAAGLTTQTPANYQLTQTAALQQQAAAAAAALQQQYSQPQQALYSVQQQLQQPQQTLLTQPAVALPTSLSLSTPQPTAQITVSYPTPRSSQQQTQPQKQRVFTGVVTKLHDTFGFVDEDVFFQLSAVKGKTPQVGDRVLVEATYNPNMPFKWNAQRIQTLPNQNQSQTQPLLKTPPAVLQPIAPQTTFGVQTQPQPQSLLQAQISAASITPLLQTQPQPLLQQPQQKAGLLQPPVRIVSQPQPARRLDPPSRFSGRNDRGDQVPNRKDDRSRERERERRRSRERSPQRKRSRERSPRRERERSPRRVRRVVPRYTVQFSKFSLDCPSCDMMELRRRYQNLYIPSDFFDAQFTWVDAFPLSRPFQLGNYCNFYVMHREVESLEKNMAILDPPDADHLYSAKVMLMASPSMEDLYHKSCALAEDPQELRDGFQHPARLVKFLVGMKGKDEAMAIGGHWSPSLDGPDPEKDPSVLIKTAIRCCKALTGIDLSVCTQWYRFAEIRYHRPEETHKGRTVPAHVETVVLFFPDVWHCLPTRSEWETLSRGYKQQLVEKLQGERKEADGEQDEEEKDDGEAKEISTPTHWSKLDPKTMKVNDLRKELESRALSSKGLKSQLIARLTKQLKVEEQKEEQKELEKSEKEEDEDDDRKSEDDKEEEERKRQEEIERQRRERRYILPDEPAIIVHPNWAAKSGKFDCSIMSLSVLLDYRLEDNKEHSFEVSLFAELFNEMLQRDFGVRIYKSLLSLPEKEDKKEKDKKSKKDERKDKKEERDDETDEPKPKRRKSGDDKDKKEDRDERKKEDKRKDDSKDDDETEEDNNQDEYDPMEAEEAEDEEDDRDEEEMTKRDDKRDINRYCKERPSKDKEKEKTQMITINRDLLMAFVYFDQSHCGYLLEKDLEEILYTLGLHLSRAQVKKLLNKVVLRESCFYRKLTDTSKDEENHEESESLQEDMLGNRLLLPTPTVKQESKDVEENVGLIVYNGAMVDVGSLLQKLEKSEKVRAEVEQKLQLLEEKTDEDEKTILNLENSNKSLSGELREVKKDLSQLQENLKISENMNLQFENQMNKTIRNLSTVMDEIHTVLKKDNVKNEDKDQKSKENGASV
The experiment can be described thus: affinity purification with mass spectrometry; anti-Flag immunoprecipitation (Protein A-G agarose) from A549 cells stably expressing Flag-CCAR1L or Flag-CCAR1S with endogenous CCAR1L/S depleted; IP buffer 50 mM Tris-HCl pH 8.0, 100 mM NaCl, 1 mM EDTA, 1% Nonidet P40; washed three times with TNE buffer; LC-MS/MS, 1% FDR.

Regarding RAB1A (from UniProt P62820 1-205), the binding entry is on record as “binds”.
To RAB1B (from UniProt Q9H0U4 1-201) belongs “binds”; to “RBM10 (endogenous) (from UniProt P98175 1-930)”, “binds”; to “CDKN2A (endogenous) (human (endogenous in A549))”, “binds”.
Turning to HMGB1 (from UniProt P09429 1-215), the binding result is “binds”.

B1: GSDMA (endogenous) (protein, UniProt Q96QA5 1-445)
chain: MTMFENVTRALARQLNPRGDLTPLDSLIDFKRFHPFCLVLRKRKSTLFWGARYVRTDYTLLDVLEPGSSPSDPTDTGNFGFKNMLDTRVEGDVDVPKTVKVKGTAGLSQNSTLEVQTLSVAPKALETVQERKLAADHPFLKEMQDQGENLYVVMEVVETVQEVTLERAGKAEACFSLPFFAPLGLQGSINHKEAVTIPKGCVLAFRVRQLMVKGKDEWDIPHICNDNMQTFPPGEKSGEEKVILIQASDVGDVHEGFRTLKEEVQRETQQVEKLSRVGQSSLLSSLSKLLGKKKELQDLELALEGALDKGHEVTLEALPKDVLLSKEAVGAILYFVGALTELSEAQQKLLVKSMEKKILPVQLKLVESTMEQNFLLDKEGVFPLQPELLSSLGDEELTLTEALVGLSGLEVQRSGPQYMWDPDTLPRLCALYAGLSLLQQLTKAS
On to B1, for which the binding result is given as “binds”.
